These results are taken from patent US20250228855A1, “PYRAZINAMIDE COMPOUNDS” (The General Hospital Corporation, priority 2022, published 2025).

This data set concerns P. falciparum Dd2-2D4. The experiment in a line: NCP26 resistance susceptibility and resistance selection. The class given is cell-based, Plasmodium falciparum.

As for `O=C(NC1Cc2ccccc2C1)c1nccnc1NC(=O)N1CCCCC1` [NCP26 (3), N-(2,3-dihydro-1H-inden-2-yl)-3-(piperidine-1-carboxamido)pyrazine-2-carboxamide], the “timeframe for resistance to arise” value (in vitro selection, 4×EC50, large population size) was above 50 generations. Also, the “induction of rapid resistance” value (wild-type parasites, intermittent drug pressure) is given as “did not induce rapid resistance”.
